Experimental data: patent publication US10736910B2, “Treatment of autophagy-based disorders and related pharmaceutical compositions, diagnostic and screening assays and kits” (STC.UNM, priority 2012, dated 2020)
At least one structure is not confirmed: it was looked up by name or label, or the drawing left a doubt.

Columns and labels:
[1] = test system: Atg5fl/fl LysM-Cre− and Cre+ bone marrow-derived macrophages (BMM); assay: IL-1β release (ELISA) from LPS- and IFN-γ-stimulated bone marrow-derived macrophages; assay type: cell-based, murine; details: autophagy-competent Atg5fl/fl LysM-Cre− BMM, 12 h, rapamycin
Text: (§1) FIG. 5. Excess cytokine secretion is a cell-autonomous property of autophagy-deficient macrophages and IL-1α hypersecretion by Atg5^fl/fl LysM-Cre^+ macrophages depends on reactive oxygen intermediates and calpain. (A-C) In vitro cytokine (IL-1α, CXCL1, and IL-12p70) release (ELISA) from LPS- and IFN-γ-stimulated Atg5^fl/fl LysM-Cre^− and Cre^+ bone marrow-derived macrophages (BMM). (D) CXCL1 released from LPS- and IFN-γ-stimulated Atg5^fl/fl LysM-Cre^+ BMM in the absence of presence of IL-1RA ([…]). (E) Fraction of 7-AAD^+ BMM after LPS and IFN-γ stimulation in vitro. (F,G) IL-1α and CXCL1 levels (ELISA) in lung homogenates of uninfected Atg5^fl/fl LysM-Cre^− and Cre^+ mice. (H,I) IL-1α (ELISA) released from LPS- and IFN-γ stimulated Atg5^fl/fl LysM-Cre BMM in the presence of 50 μg/ml rapamycin (Rap), 10 mM 3-MA, or 100 nM Bafilomycin A1 (Baf A1) after 12 h of stimulation. (J) IL-1α secretion during inflammasome activation. […]
FIG. 10. […] IL-1β secretion was examined in autophagy-competent Atg5fl/fl LysM-CreBMM and IL-1α secretion was measured in autophagy-deficient Atg5fl/fl LysM-Cre+ BMM. […]
All cells were pretreated with Stain FcX (anti-CD16/32) (Biolegend) before being stained for. […] Caspase 1 activity was measured by flow cytometry using the FLICA caspase 1 reagent (FAM-YVAD-FMK) (Immunochemistry Technologies). […]

[2] = test system: Atg5fl/fl LysM-Cre− and Cre+ bone marrow-derived macrophages (BMM); assay: IL-1α release (ELISA) from LPS- and IFN-γ-stimulated bone marrow-derived macrophages; assay type: cell-based, murine; details: autophagy-competent Atg5fl/fl LysM-Cre− BMM, 12 h, 50 μg/ml rapamycin, 10 mM 3-MA or 100 nM Bafilomycin A1
Text: as §1
All cells were pretreated with Stain FcX (anti-CD16/32) (Biolegend) before being stained for. […] Caspase 1 activity was measured by flow cytometry using the FLICA caspase 1 reagent (FAM-YVAD-FMK) (Immunochemistry Technologies). […] Secreted cytokines (IL-1αIL-1β CXCL1, CXCL2 and IL-12p70) were measured by ELISA (R&D Systems). […]

CO[C@H]1C[C@@H]2CC[C@@H](C)[C@@](O)(O2)C(=O)C(=O)N2CCCC[C@H]2C(=O)O[C@H]([C@H](C)C[C@@H]2CC[C@@H](O)[C@H](OC)C2)CC(=O)[C@H](C)/C=C(\C)[C@@H](O)[C@@H](OC)C(=O)[C@H](C)C[C@H](C)/C=C/C=C/C=C/1C [rapamycin]
IL-1β secretion [1]: paralleling the effects on IL-1β | IL-1α secreted [2]: reduced the amount of IL-a being secreted
